This test concerns the target SSNA-1 (C. elegans ortholog of Sjogren's Syndrome Nuclear Antigen 1) (C. elegans) (UniProt Q95X71). The test can be described thus: co-sedimentation; purified proteins incubated alone or together for 10 min at room temperature; 1.25 μM ZYG-1 or BSA, 10 μM SSNA-1 filaments or GMPCPP microtubules; 30 μL; 80,000 rpm (278,088 × g), TLA-120.2, 10 min, 25 °C; supernatant and pellet by SDS-PAGE and immunoblot; SSNA-1 in 50 mM phosphate pH 7.5, 150 mM NaCl, 10% glycerol, 1 mM DTT; both purified.

Sequences of proteins named here, by UniProt entry; tags and fusion partners are left off. A change or cut given only in a name is not applied to a line headed by its entry. Residues count along the entry.
UniProt Q95X71: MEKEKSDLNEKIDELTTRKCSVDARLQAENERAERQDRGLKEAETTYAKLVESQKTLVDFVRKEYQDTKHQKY
UniProt P02769, residues 25-607: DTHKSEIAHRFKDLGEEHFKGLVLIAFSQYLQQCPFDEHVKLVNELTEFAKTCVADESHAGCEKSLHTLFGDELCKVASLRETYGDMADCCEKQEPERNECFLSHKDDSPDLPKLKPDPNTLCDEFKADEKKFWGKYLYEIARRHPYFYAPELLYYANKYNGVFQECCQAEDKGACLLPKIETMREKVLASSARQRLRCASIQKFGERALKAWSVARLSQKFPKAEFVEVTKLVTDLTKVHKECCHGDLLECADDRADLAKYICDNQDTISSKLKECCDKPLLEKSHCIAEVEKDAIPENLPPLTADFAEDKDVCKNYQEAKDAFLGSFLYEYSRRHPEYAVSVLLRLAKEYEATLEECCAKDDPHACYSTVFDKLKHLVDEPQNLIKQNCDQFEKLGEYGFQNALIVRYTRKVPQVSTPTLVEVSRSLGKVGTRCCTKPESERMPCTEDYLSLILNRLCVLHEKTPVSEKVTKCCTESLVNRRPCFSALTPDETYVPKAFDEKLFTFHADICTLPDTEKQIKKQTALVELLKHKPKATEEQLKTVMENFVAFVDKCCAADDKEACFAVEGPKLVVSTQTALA

These are yes or no findings as the source states them, for the method shown.

For BSA (from UniProt P02769 25-607), the binding entry was “no binding (tested: 1.25 μM BSA, 10 μM SSNA-1)”.

The values above are taken from article PMC12141670.
